At least one peptide structure holds a part that was inferred or is arguable (an end, a ring closure or a residue). For some assays here: At least one read-out could not be matched to a standard name with certainty. Some compounds share one wording; it may come from a single statement. No end group written: not given here.
Assays:
[1] = system: T2 target cells, gp100-reactive TIL 1200 lymphocytes; assay: Chromium-release assay, target cell sensitization for lysis by TIL 1200; type: cell-based, human; conditions: for target cell lysis by TIL 1200 (% specific lysis): E:T 20:1, T2 target cells preincubated 90 min with 1 μM peptide, 5 hours; for peptide concentration for recognition by TIL 1200 / anti-gp100 CTL compared to wild type epitope (titration): T2 target cells, E:T 20, FIG. 1B and 2B
Protocol: Chromium release assays were performed as described previously (Bakker et al., 1994, J. Exp. Med. 179:1005). […] Various amounts of effector cells were then added to the target cells in triplicate wells of U bottomed microliter plates (Costar, Badhoevedorp, The Netherlands) in a final volume of […]. […] After 5 h of incubation, part of the supernatant was harvested and its radioactive content was measured. The mean percentage specific lysis of triplicate wells was calculated using the formula: % specific lysis=((experimental release−spontaneous release)÷(maximal release−spontaneous release))×100.

[2] = biological target: T1, HLA-A*0201 (Homo sapiens, UniProt P04439, D140Y/D185E/D98H/E176V/E277Q/G131W/G231S/I119V/I121R/I166T/I218V/L300P/L318F/N151K/N90K/P208A/P217A/Q86G/Q94H/R138H/R169H/T345S); assay: Peptide-induced HLA-A*0201 upregulation/stabilization on T2 cells; type: binding
T1 construct: Peptide-induced HLA-A*0201 upregulation on T2 cells was performed as described previously; endogenous in cells; host or cells: T2 cells (processing-defective, HLA-A*0201+)

[3] = biological target: T2, HLA-A*0201-peptide complexes (Homo sapiens, UniProt P04439, D140Y/D185E/D98H/E176V/E277Q/G131W/G231S/I119V/I121R/I166T/I218V/L300P/L318F/N151K/N90K/P208A/P217A/Q86G/Q94H/R138H/R169H/T345S); assay: MHC-peptide complex stability at 37° C.; type: binding; conditions: emetine pretreated HLA-A*0201+ B-LCL
T2 construct: HLA-A*0201^+ homozygous JY cells were treated with 10^4 M emetine; endogenous in cells; host or cells: JY B lymphoblastoid cells, HLA-A*0201 homozygous

[4] = system: HLA-A*0201+ T2 target cells; assay: HLA-A*0201+ donor derived CTL induction in vitro, lysis of peptide-loaded T2 target cells; type: cell-based, human; conditions: E:T 20:1, FIG. 4
[5] = system: HLA-A*0201/K^b transgenic mice; assay: CTL induction in HLA-A*0201/K^b transgenic mice; type: in vivo; conditions: subcutaneous immunization, bulk CTL tested on peptide-loaded Jurkat A*0201/K^b cells, FIG. 3

| Sequence | target cell lysis by TIL 1200 (% specific lysis) [1] | peptide concentration for recognition by TIL 1200 / anti-gp100 CTL compared to wild type epitope (titration) [1] | HLA-A*0201 stabilization (Fluorescence Index) ([2]; 25 μM peptide) | HLA-A*0201 stabilization (Fluorescence Index) ([2]; 50 μM peptide) | Stability (DT 50%), time required for 50% of the MHC class I-peptide complexes to decay [3] | lysis of T2 target cells incubated with the peptide used for CTL induction, by CTL raised against the peptide [4] | induction of a CTL response (immunogenicity) [5] |
| --- | --- | --- | --- | --- | --- | --- | --- |
| KLWGQYWQV | 65% | tenfold lower concentrations | – | – | – | – | – |
| KTWGQYWAV | 73% | tenfold lower concentrations | 1.35 | 1.72 | >4 h | efficiently lysed | very efficiently induced a CTL response |
| KIWGQYWQV | 68% | tenfold lower concentrations | 1.43 | 2.00 | >4 h | efficiently lysed | To a lesser extent |
| KVWGQYWQV | 69% | tenfold lower concentrations | 1.57 | 2.13 | >4 h | efficiently lysed | very efficiently induced a CTL response |

Source: patent US8075900B2, “Melanoma associated peptide analogues and vaccines against melanoma” (The United States of America, as represented by the …, priority 1996, dated 2011)
